Data published in US20250163010A1, “PROCESSES FOR THE PREPARATION OF N-(1-METHYLCYCLOPROPYL)-2-(3-PYRIDINYL)-2H-INDAZOLE-4-CARBOXAMIDE AND INTERMEDIATES THEREOF” (FMC CORPORATION, priority 2022, published 2025).
At least one compound was matched to its structure with a doubt left.

Assay: Stable polymorph form screen by slurry experiments
Format: physicochemical
Conditions: starting with Form A + minor Form B
Description: Slurry experiments were conducted to identify the stable form at various conditions. In these experiments, saturated solutions in various solvents containing excess undissolved solids (starting with Form A+minor Form B) were stirred for extended durations. Slurries at room temperature (RT) and 2-8° C. were typically conducted for approximately 2 weeks, while slurries at 72-73° C. were stirred for a shorter duration (1 day) to minimize the potential for decomposition. […] The results are shown in the table 12 where the time and temperatures are approximate.

Measured: Final form (XRPD Result)

CC1(NC(=O)c2cccc3nn(-c4cccnc4)cc23)CC1 [Compound 092, N-(1-methylcyclopropyl)-2-(3-pyridinyl)-2H-indazole 4-carboxamide]
Form A: slurry in DCM, RT, 13 d | slurry in DMF, RT, 13 d | slurry in EtOH, 72-73° C., 1 d | slurry in EtOH, RT, 13 d | slurry in IPA, RT, 13 d | slurry in MEK, 72-73° C., 1 d | slurry in MEK, RT, 13 d | slurry in MeOH, 2-8° C., 14 d | slurry in MeOH, RT, 13 d | slurry in acetone, RT, 13 d
